{
  "sequences": {"note": "Protein sequences, listed by entry. Tags and fused reporters are not part of them. Lines headed by an entry give the natural chain unless they say otherwise; changes in a name come on top. Chains listed by the source or under a name are the forms on record and can include a tag or linker.", "MBP:RGA5_HMAm1m2 (F7J0N2, form named)": "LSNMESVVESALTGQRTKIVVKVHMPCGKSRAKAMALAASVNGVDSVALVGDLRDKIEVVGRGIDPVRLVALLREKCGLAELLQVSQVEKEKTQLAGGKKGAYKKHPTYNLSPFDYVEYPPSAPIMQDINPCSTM"},
  "source": "paper PMC8938504",
  "molecular_target": "MBP:RGA5_HMAm1m2 (rice (Oryza sativa)) (UniProt F7J0N2)",
  "assay": "SEC; both purified",
  "note": "No constants are given. Whether binding was seen depends on the method and setting.",
  "data": [
    {"substance": "MBP:RGA5_HMAm1m2 (from UniProt F7J0N2) (domain or fragment)", "values": [
      {"measurement": "binding", "value": "no binding (tested: about 2 mg/mL)"}
    ]}
  ]
}
